Reference: CN113637077A
These are yes or no findings as the source states them, for the method shown. Some entries that bind do so weakly or less than the wild type.

T1: U937细胞表面MICA (human) (UniProt Q29983)
T1 sequence (looked up): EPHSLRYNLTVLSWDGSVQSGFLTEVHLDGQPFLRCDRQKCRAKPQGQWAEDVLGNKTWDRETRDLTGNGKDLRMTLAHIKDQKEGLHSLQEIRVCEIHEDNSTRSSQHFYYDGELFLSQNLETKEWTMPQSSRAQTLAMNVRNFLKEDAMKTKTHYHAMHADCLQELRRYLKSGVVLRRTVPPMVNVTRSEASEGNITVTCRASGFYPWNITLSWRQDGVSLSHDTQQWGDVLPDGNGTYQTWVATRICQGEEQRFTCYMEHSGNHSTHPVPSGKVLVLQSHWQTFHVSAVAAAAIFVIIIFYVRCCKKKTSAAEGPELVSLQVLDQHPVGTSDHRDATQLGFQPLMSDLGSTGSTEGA

B1: 3E5抗体 (Fc fusion, not shown: a dimerising Fc or GST)
chain: QVKLEESGGGLVQAGGSLRLSCAASGFSFDDYAIGWFRQALGKEREEREGVACISSSDRSTYYADPVKGRFAISSDNAKSTVYLQMTSLKPEDTAVYYCARLSRCSGYGPYTLWNWGQGTQVTVSS
B2: IPH4301 (antibody, V domains shown)
VH: QVQLQESGPGLVKPSETLSLTCTVSGYSITSDYAWNWIRQPPGKGLEWIGFVSYSGTTKYNPSLKSSRVTISRDTSKNQFSLKLSSVTAADTAVYYCARGYGFDYWGQGTTVTVSS
VL: EIVLTQSPATLSLSPGERATLSCSATSSISSIYFHWYQQKPGQAPRLLIYRTSNLASGIPARFSGSGSGTDYTLTISSLEPEDFAVYYCQQGTTIPFTFGQGTKLEIK

Biological target: T1, U937细胞表面MICA (human)
Assay: flow cytometry on U937 cells, PE anti-human IgG Fc detection

binding	Binder
binds	B1
binds	B2
